Here are results for 1 molecule from US20030152959A1.

Protein sequences, listed by entry. Tags and fused reporters are not part of them.
UniProt P03372: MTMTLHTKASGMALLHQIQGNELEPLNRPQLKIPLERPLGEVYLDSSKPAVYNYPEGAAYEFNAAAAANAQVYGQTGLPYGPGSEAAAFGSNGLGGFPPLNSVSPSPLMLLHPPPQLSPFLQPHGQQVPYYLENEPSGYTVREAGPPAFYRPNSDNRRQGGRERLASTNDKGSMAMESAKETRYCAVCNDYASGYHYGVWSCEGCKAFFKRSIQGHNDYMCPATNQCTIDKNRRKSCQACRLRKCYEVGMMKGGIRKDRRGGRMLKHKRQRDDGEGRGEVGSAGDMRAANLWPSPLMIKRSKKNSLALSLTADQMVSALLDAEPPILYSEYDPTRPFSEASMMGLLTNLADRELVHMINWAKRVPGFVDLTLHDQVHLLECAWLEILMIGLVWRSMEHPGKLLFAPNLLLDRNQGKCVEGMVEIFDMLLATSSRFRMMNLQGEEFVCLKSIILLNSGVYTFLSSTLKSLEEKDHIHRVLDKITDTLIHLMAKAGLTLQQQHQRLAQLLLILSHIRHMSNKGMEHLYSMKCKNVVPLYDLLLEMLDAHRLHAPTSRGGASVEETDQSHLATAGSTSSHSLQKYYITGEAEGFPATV

This assay addresses estrogen receptor α (ERα) (human) (UniProt P03372). The experiment in a line: GST pull-down of 35S-methionine-labelled ERα with GST-ERRα1 deletion series.

Results are given in words; binding and its absence hold for the method and conditions named. Binding seen in cells or lysates may run through a third protein. Some results given as binding are weak or reduced against the parent protein; the word gives no strength. Where a sequence is shown, tags or fusion partners need not be part of it.

B1: GST fusion of ERRα1 amino acids 1-173 (protein, human, UniProt P11474 1-173, looked up, not shown: a dimerising Fc or GST)
chain: MSSQVVGIEPLYIKAEPASPDSPKGSSETETEPPVALAPGPAPTRCLPGHKEEEDGEGAGPGEQGGGKLVLSSLPKRLCLVCGDVASGYHYGVASCEACKAFFKRTIQGSIEYSCPASNECEITKRRRKACQACRFTKCLRVGMLKEGVRLDRVRGGRQKYKRRPEVDPLPFP
For the molecule B1, the binding entry is reported as “binds”.
